test: general procedure: solution-phase peptide synthesis; conditions: conjugation step

Compared with “14,22,24,9-tetra-tert-butyl 1-((S)-4-ethyl-3,14-dioxo-3,4,12,14-tetrahydro-1H-pyrano[3′,4′:6,7]indolizino[1,2-b]quinolin-4-yl) (4S,9S,14S,19S,22S)-19-(2-(tert-butoxy)-2-oxoethyl)-4-((tert-butoxycarbonyl)amino)-3,7,12,17,20-pentaoxo-2,8,13,18,21-pentaazatetracosane-1,9,14,22,24-pentacarboxylate”, “1,11,16,3-tetra-tert-butyl 28-((S)-4-ethyl-3,14-dioxo-3,4,12,14-tetrahydro-1H-pyrano[3′,4′:6,7]indolizino[1,2-b]quinolin-4-yl) (3S,6S,11S,16S,21S)-6-(2-(tert-butoxy)-2-oxoethyl)-21-((tert-butoxycarbonyl)amino)-5,8,13,18,22-pentaoxo-4,7,12,17,23-pentaazaoctacosane-1,3,11,16,28-pentacarboxylate” is higher in conjugation yield: 30.0% for the first, 45.2% for the second.

Compared with “1,11,16,3-tetra-tert-butyl 26-((S)-4-ethyl-3,14-dioxo-3,4,12,14-tetrahydro-1H-pyrano[3′,4′:6,7]indolizino[1,2-b]quinolin-4-yl) (3S,6S,11S,16S,21S)-6-(2-(tert-butoxy)-2-oxoethyl)-21-((tert-butoxycarbonyl)amino)-5,8,13,18,22-pentaoxo-4,7,12,17,23-pentaazahexacosane-1,3,11,16,26-pentacarboxylate”, “1,11,16,3-tetra-tert-butyl 34-((S)-4-ethyl-3,14-dioxo-3,4,12,14-tetrahydro-1H-pyrano[3′,4′:6,7]indolizino[1,2-b]quinolin-4-yl) (3S,6S,11S,16S,21S)-6-(2-(tert-butoxy)-2-oxoethyl)-21-((tert-butoxycarbonyl)amino)-5,8,13,18,22-pentaoxo-4,7,12,17,23-pentaazatetratriacontane-1,3,11,16,34-pentacarboxylate” is lower in conjugation yield: 49.3% for the first, 42.0% for the second.

same assay, conditions: coupling step

Compared with “6-benzyl 11,16,24,26-tetra-tert-butyl (6S,11S,16S,21S,24S)-21-(2-(tert-butoxy)-2-oxoethyl)-2,2-dimethyl-4,9,14,19,22-pentaoxo-3-oxa-5,10,15,20,23-pentaazahexacosane-6,11,16,24,26-pentacarboxylate”, “tetra-tert-butyl (5S,10S,15S,18S)-15-(2-(tert-butoxy)-2-oxoethyl)-1-(9H-fluoren-9-yl)-3,8,13,16-tetraoxo-2-oxa-4,9,14,17-tetraazaicosane-5,10,18,20-tetracarboxylate” is higher in step yield: 83.6% for the first, 86.7% for the second.

same assay, conditions: late stage modification step

First: ((S)-4-((S)-4-((S)-4-amino-5-((2-(((S)-4-ethyl-3,14-dioxo-3,4,12,14-tetrahydro-1H-pyrano[3′,4′:6,7]indolizino[1,2-b]quinolin-4-yl)oxy)-2-oxoethyl)amino)-5-oxopentanamido)-4-carboxybutanamido)-4-carboxybutanoyl)-L-aspartyl-L-glutamic acid
Second: (3S,6S,11S,16S,21S)-21-amino-6-(carboxymethyl)-29-(((S)-4-ethyl-3,14-dioxo-3,4,12,14-tetrahydro-1H-pyrano[3′,4′:6,7]indolizino[1,2-b]quinolin-4-yl)oxy)-5,8,13,18,22,29-hexaoxo-4,7,12,17,23-pentaazanonacosane-1,3,11,16-tetracarboxylic acid
The step yield of the first is lower: 19.9% for the first, 25.0% for the second.

Compared with “(3S,6S,11S,16S,21S)-21-amino-6-(carboxymethyl)-27-(((S)-4-ethyl-3,14-dioxo-3,4,12,14-tetrahydro-1H-pyrano[3′,4′:6,7]indolizino[1,2-b]quinolin-4-yl)oxy)-5,8,13,18,22,27-hexaoxo-4,7,12,17,23-pentaazaheptacosane-1,3,11,16-tetracarboxylic acid”, “di-tert-butyl ((S)-2-((S)-4-((S)-4-amino-5-(tert-butoxy)-5-oxopentanamido)-5-(tert-butoxy)-5-oxopentanamido)-4-(tert-butoxy)-4-oxobutanoyl)-L-glutamate” is higher in step yield: 19.9% for the first, 87.3% for the second.

“(3S,6S,11S,16S,21S)-21-amino-6-(carboxymethyl)-35-(((S)-4-ethyl-3,14-dioxo-3,4,12,14-tetrahydro-1H-pyrano[3′,4′:6,7]indolizino[1,2-b]quinolin-4-yl)oxy)-5,8,13,18,22,35-hexaoxo-4,7,12,17,23-pentaazapentatriacontane-1,3,11,16-tetracarboxylic acid” showed a step yield of 24.8%.

Reference: publication PMC6214026 (International Journal of Molecular Sciences, 2018)
